Drawing on article PMC4231674, this text covers binding for one molecule.

Sequences of proteins named here, by UniProt entry; tags and fusion partners are left off.
UniProt P68104: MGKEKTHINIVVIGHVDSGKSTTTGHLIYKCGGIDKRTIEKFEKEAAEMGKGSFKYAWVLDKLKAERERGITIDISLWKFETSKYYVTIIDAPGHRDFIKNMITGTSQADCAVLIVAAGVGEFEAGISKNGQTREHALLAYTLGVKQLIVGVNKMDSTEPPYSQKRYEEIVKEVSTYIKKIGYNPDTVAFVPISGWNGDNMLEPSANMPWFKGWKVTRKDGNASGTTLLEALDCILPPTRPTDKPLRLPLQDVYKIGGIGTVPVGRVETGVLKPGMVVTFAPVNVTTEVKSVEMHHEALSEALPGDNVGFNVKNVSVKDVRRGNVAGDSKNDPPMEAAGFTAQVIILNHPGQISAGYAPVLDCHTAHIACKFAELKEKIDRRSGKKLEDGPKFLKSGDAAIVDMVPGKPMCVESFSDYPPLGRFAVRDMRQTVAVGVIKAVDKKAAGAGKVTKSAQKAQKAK
UniProt P26641: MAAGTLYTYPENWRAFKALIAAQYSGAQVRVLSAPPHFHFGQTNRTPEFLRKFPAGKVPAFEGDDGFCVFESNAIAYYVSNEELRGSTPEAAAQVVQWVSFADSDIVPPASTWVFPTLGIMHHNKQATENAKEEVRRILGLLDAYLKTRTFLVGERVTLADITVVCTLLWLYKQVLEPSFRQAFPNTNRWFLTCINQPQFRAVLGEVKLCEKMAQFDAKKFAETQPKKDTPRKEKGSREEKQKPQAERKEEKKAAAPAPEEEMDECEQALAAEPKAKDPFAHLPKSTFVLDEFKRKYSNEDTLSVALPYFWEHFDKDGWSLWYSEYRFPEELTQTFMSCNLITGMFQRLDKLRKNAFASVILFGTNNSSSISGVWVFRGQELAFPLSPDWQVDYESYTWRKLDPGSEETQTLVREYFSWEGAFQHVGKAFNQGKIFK

Results are given in words; binding and its absence hold for the method and conditions named. In cells and extracts the contact can be indirect. Some entries that bind do so weakly or less than the wild type. Tags and fused reporters may be left off the sequences shown.

Assay [1] has as its target His-eEF1A (human eukaryotic elongation factor 1A) (human) (UniProt P68104). As to the kind of experiment: pull-down + SEC; three proteins co-expressed in BHK-21 cells; lysate on nickel-nitrilotriacetic acid resin, washed with 500 mM KCl then 100 mM KCl buffer (20 mM HEPES-KOH pH 7.5, 0.1% Triton X-100, 10 mM imidazole), eluted with 50-1000 mM imidazole; eluates on HiPrep 16/60 Sephacryl S-300 HR in 20 mM HEPES-KOH pH 7.5, 100 mM KCl, 10% glycerol.

Assay [2] deals with His-eEF1Bγ (human eukaryotic elongation factor 1B gamma) (human) (UniProt P26641). The description is as above.

B1: eEF1Bα (human eukaryotic elongation factor 1B alpha), untagged (protein, UniProt P24534 1-225)
chain: MGFGDLKSPAGLQVLNDYLADKSYIEGYVPSQADVAVFEAVSSPPPADLCHALRWYNHIKSYEKEKASLPGVKKALGKYGPADVEDTTGSGATDSKDDDDIDLFGSDDEEESEEAKRLREERLAQYESKKAKKPALVAKSSILLDVKPWDDETDMAKLEECVRSIQADGLVWGSSKLVPVGYGIKKLQIQCVVEDDKVGTDMLEEQITAFEDYVQSMDVAAFNKI
For B1, the binding entry in assay [1] and in assay [2] was “binds” in each case.
